# Assay results taken from publication PMC7819943, “Rice protein-binding microarrays: a tool to detect cis-acting elements near promoter regions in rice”.
# The other results are listed elsewhere or left out.
# Molecular target: T1, OsSMF1 (Oryza sativa, UniProt Q6ZLB0 1-436)
# T1 sequence: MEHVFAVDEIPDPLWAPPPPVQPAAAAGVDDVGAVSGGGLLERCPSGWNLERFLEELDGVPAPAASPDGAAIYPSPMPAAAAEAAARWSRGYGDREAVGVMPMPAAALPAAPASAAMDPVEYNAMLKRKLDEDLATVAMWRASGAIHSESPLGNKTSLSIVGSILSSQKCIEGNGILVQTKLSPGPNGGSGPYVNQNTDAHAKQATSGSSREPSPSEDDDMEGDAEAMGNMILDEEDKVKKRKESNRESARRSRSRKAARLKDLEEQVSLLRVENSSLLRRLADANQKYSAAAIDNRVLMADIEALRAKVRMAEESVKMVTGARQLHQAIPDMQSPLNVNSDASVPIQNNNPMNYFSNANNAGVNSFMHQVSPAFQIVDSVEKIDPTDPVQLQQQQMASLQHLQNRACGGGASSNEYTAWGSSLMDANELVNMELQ
# Experiment: protein-binding microarray (RPBM); PBS, 2% BSA, 51.3 ng/ul salmon testes DNA, 50 uM zinc acetate, 200 nM TF, 25 C, 1 h; high values mean tight binding
# Conditions: protein: recombinant; tags: N-terminal polyhistidine and DsRed monomer fusion (pET32a); chain copies: 2; label: CyDye5-dUTP incorporated in the synthesized complementary strand; 3' TTTTT single-stranded linker to array surface; dsDNA, one strand shown
# Summary of the method: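 For the binding signal, per-feature fluorescence intensity was read in arbitrary units on an Axon 4000B scanner. Before scanning, a 2% BSA-blocked custom Agilent array made double-stranded with Cy5-dUTP was washed after 1 h at 25 °C with 200 nM protein and 50 µM zinc acetate. The proteins were Ni–NTA-purified transcription factors with N-terminal polyhistidine and DsRed fusions, expressed in E. coli BL21-CodonPlus.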
row,Sequence,binding signal
1,TTTACTACGCCGACCGGACTAACGTGGCAACATTACACACCGGAGTCACCTAGTGCAG,4900 fluorescence intensity (a.u.)
2,CTGGAGTGCGGATGTGGAATACACGTGTGCCCTGTTATAACGGAGTCACCTAGTGCAG,8780 fluorescence intensity (a.u.)
3,AACAATTCTTGAAGGTATGTCAGCATCCCTAGTTTAATAGCGGAGTCACCTAGTGCAG,3610 fluorescence intensity (a.u.)
4,ACACAGTGCGTGCCATGATCGTGACTCATGAGCCTTTTGCCGGAGTCACCTAGTGCAG,17100 fluorescence intensity (a.u.)
5,CAAGATAGCAATTGATTTACAGCGTATCGATCTATTTGTACGGAGTCACCTAGTGCAG,3370 fluorescence intensity (a.u.)
6,CAACCGGAAACGGGCGATCCACAACCACCACCTAAAATTACGGAGTCACCTAGTGCAG,26100 fluorescence intensity (a.u.)
7,GTAACATGGTTCACGTCATCTTATTTTGCACTTCAATTTACGGAGTCACCTAGTGCAG,5570 fluorescence intensity (a.u.)
8,CATTCCCTTTGCGCGCAGCCTCGTCGCCTCGCCTCGCCGACGGAGTCACCTAGTGCAG,3240 fluorescence intensity (a.u.)
9,ACAGCGTGGGTGGTTGGTCGACTACACACGCTCGTCGGAGCGGAGTCACCTAGTGCAG,3160 fluorescence intensity (a.u.)
10,TCGATCGTGCATTCATGTGCCCGTACACCTGCGTGCGTGTCGGAGTCACCTAGTGCAG,5200 fluorescence intensity (a.u.)
11,TTGGCTGATATGGCGCCTATATGGCTCCTATGACTAAGTACGGAGTCACCTAGTGCAG,3580 fluorescence intensity (a.u.)
12,GTCGCCGCAGCCCACGGATAGCCATGGCCCGTCATCGCCGCGGAGTCACCTAGTGCAG,3610 fluorescence intensity (a.u.)
13,AATCTTAAAATCTCTCCTCTCTCTCCAAGTCCCTGCCTCTCGGAGTCACCTAGTGCAG,3330 fluorescence intensity (a.u.)
14,CATCATCTCTATCATCATTTCTCATCCATCACTTTCTTTGCGGAGTCACCTAGTGCAG,3400 fluorescence intensity (a.u.)
15,GGCTTACGAGTTCTAACAACGTCATTTTGGACTCACCTTTCGGAGTCACCTAGTGCAG,5120 fluorescence intensity (a.u.)
16,ATGGAGCCTGACGTGGCAGCATGTAGCTGGTCCACGTCACCGGAGTCACCTAGTGCAG,27400 fluorescence intensity (a.u.)
17,ATTATTAACATGTGACAGCGACTCATTTTATGATATATTGCGGAGTCACCTAGTGCAG,3810 fluorescence intensity (a.u.)
18,TGAAGCGGCCGTCTTGTAAGCAATTGATGACGCCATACACCGGAGTCACCTAGTGCAG,7780 fluorescence intensity (a.u.)
19,GAATAGCTGCTTGTTAACTAGGGATTAGAGGTGGGGTTTTCGGAGTCACCTAGTGCAG,17400 fluorescence intensity (a.u.)
20,AGGGGCAATCTCGCATGTGTCCCTTTGTTGGTCTAGTGGCCGGAGTCACCTAGTGCAG,3340 fluorescence intensity (a.u.)
21,CGTCTTGCAGAAGTGCTTAGGTGACATGGCAGAGGCAAATCGGAGTCACCTAGTGCAG,7470 fluorescence intensity (a.u.)
22,GCGTGGACACCCGGCTGCCGATGCTGGTGTACGTGTCGCGCGGAGTCACCTAGTGCAG,4940 fluorescence intensity (a.u.)
23,TAGGCCTAGGCCTGGGCGGACGGCGACAGGCGGGGACGGGCGGAGTCACCTAGTGCAG,3680 fluorescence intensity (a.u.)
